Experimental data reported in EP0491828B1, “PEPTIDES FROM GTPase-ACTIVATING PROTEIN (GAP), DIAGNOSTIC AND THERAPEUTIC USE THEREOF” (CHIRON CORPORATION, priority 1989, dated 1999).
Entries after “also recorded” stand apart in the source; their conditions may differ. At least one peptide structure holds a part that was inferred or is arguable (an end, a ring closure or a residue). Ends that are not written are not given here.

Tests used:
Format in all cases: biochemical
[1] = test system: N-ras; experiment: Peptide mediated dissociation of GDP from ras p21-GDP complex (N-ras, nitrocellulose filtration); conditions: for dissociation of GDP from ras p21-GDP complex (bound [α-32P] GDP over time): peptide at 10 µM and 50 µM, 100 µM unlabelled GDP, 5 mM MgCl2
[2] = test system: ras p21 protein; experiment: GDP/GTP ratio assay of p21-GTP hydrolysis (alpha-32-P-GTP, PEI cellulose chromatography), with and without GAP; conditions: for amount of GDP formed (ratio of radioactive counts of GDP over GTP): absent GAP, over the range of peptide concentrations used; for hydrolysis of p21-GTP (ratio of radioactive counts of GDP over GTP): in the presence of GAP
Procedure: Another experiment comparing the efficacy of cGAP 13 and peptide 891 in preventing the hydrolysis of GTP was carried out as follows. The assay measured the ratio of GDP formed resulting from the hydrolysis of GTP to the remaining GTP in the assay solution. Peptides 891, cGAP 13, and G65 were separately tested in the presence and absence of GAP, Peptide G65, which served as a control, and α-32-P-GTP were used.
The assay was carried out as follows. The p21-GTP was diluted at a ratio of 1 to 10 in an assay buffer consisting of TNM at pH 7.0, 1mM DTT, and 100 µM GTP. A mixture consisting of 20 λ of p21 at 0.25 µM, and 2 λ of the peptide (in TNM, 1mM DTT and 100 µM GTP) was prepared. To this mixture was added 5 λ, i.e. 12ng of GAP diluted in TNM and 1 mg/ml BSA; for experiments without GAP, 5λ TNM/BSA were added instead. The resulting mixture was incubated for 30 minutes at room temperature. The reaction was stopped and the nucleotides were eluted from ras p21 protein with 2% SDS, 40 mM EDTA at 65°C for 5 minutes. The nucleotides were chromatographed on PEI Cellulose in 1M LiCl. GTP and GDP spots were visualized with autoradiography and identified by means of standard solutions. The individual spots from the PEI cellulose plates were scraped and the radioactivity counted.

[3] = test system: H-ras; experiment: Peptide mediated dissociation of GDP from ras p21-GDP complex (H-ras); conditions: same experiment as with N-ras
[4] = test system: ras p21 protein; experiment: Filter assay of GTP hydrolysis by ras p21 protein (32-P gamma-GTP), with and without GAP
Procedure: The above four peptides, in the following two experiments, were tested for their abilities to inhibit the hydrolysis of GTP by ras p21 protein, in the presence and absence of GAP. The first experiment involved peptides G65, G73 and 891. It was carried out as follows: purified wild type ras p21 protein was incubated with 0.25 µM 32-P gamma-GTP in 100 mM NaPO4, pH 6.8, 0.5 mM DTT, 0.5 mM EDTA, 0.005% Na cholate, and 0.5 mg/ml BSA for 15 minutes at 30°C. The mixture was then diluted ten fold with TNM buffer (comprising 20 mM Tris-HCl, pH 7.0, 100 mM NaCl, 5 mM MgCl2). 20 µl (0.05 µg of p21) of this mixture was then combined with 2 µl of the peptide in 25 mM NaOAc, pH 5.5 and incubated for 5 minutes at room temperature. The GAP assay, was initiated by the addition of 12 ng GAP in 5 µl TNM buffer with 1 mg/ml BSA or 5 µl TNM BSA buffer for the GAP independent reactions, and the resulting mixture was incubated for 30 minutes at room temperature. The samples were then filtered through nitrocellulose membranes and washed three times with cold TNM. The filters were dried and their radioactivity counted. […] In the presence of GAP, the radioactive ras p21-GTP complex is hydrolyzed to GDP and ras p21 protein, thus reducing the resulting amount of radioactive p21-GTP bound to the filter and consequently, the radioactive counts detected. […]

[5] = test system: ras p21-GTPγS; experiment: Dissociation of GTPγS from ras p21-GTPγS complex; conditions: non-hydrolyzable analog of GTP
[6] = peptide at 50 to 100 µM and above

Sequence: MRTRVVSGFVFLRLIC [peptide 891, MRTRVVSGFVFLRLIC]
- effect of peptide concentration on rate and amount of GDP dissociated ([1]; increase of peptide from 10 µM to 50 µM): caused an increase in the rate and amount of GDP dissociated
- dissociation of GDP from ras p21-GDP complex (bound [α-32P] GDP over time) [1]: mediate the dissociation of GDP from ras p21-GDP complex; also recorded: the bound [α-^32P] GDP decreased over time; also recorded: causes dissociation of GDP from ras p21-GDP complex
- amount of GDP formed (ratio of radioactive counts of GDP over GTP) [2]: small but significant change in the amount of GDP formed
- hydrolysis of p21-GTP (ratio of radioactive counts of GDP over GTP) ([2]; peptide at 10 µM): Marginal inhibition
- hydrolysis of p21-GTP (ratio of radioactive counts of GDP over GTP) [2, 6]: clearly inhibit the hydrolysis of p21-GTP
- dissociation of GDP from ras p21-GDP complex (bound [α-32P] GDP over time) [3]: yielded a similar result
- hydrolysis of GTP by ras p21 protein (radioactive counts per minute of ras p21-GTP complex on filter) ([4]; in the absence of GAP, peptide alone): significantly inhibits ras p21 protein hydrolysis of GTP
- hydrolysis of GTP by ras p21 protein (radioactive counts per minute of ras p21-GTP complex on filter) ([4]; in the presence and absence of GAP, 30 minutes at room temperature): inhibit the stimulation of hydrolysis of GTP by p21, both in the presence and absence of GAP; also recorded: adversely affects the hydrolysis of GTP
- dissociation of GTPγS from ras p21-GTPγS complex [5]: not the dissociation of a non-hydrolyzable analog of GTP, GTPγS, from ras p21-GTPγS complex; also recorded: does not cause the dissociation of GTPγS from ras p21-GTPγS

Sequence: TMRTRVVSGFVFLRLIC [cGAP 13, Thr-Met-Arg-Thr-Arg-Val-Val-Ser-Gly-Phe-Val-Phe-Leu-Arg-Leu-Ile-Cys]
- dissociation of GDP from ras p21-GDP complex (bound [α-32P] GDP over time) [1]: mediate the dissociation of GDP from ras p21-GDP complex; also recorded: yielded similar results
- amount of GDP formed (ratio of radioactive counts of GDP over GTP) [2]: small but significant change in the amount of GDP formed
- hydrolysis of GTP by p21 ([2]; in the presence and absence of GAP (summary statement)): inhibit the stimulation of hydrolysis of GTP by p21, both in the presence and absence of GAP
- hydrolysis of p21-GTP (ratio of radioactive counts of GDP over GTP) ([2]; peptide at 10 µM): Marginal inhibition
- hydrolysis of p21-GTP (ratio of radioactive counts of GDP over GTP) [2, 6]: clearly inhibit the hydrolysis of p21-GTP
- dissociation of GDP from ras p21-GDP complex (bound [α-32P] GDP over time) [3]: yielded a similar result
- dissociation of GTPγS from ras p21-GTPγS complex [5]: not the dissociation of a non-hydrolyzable analog of GTP, GTPγS, from ras p21-GTPγS complex
